Results are given in words; binding and its absence hold for the method and conditions named. In cells and extracts the contact can be indirect. Some results given as binding are weak or reduced against the parent protein; the word gives no strength. Tags and fused reporters may be left off the sequences shown.

Protein sequences, listed by entry. Tags and fused reporters are not part of them. Lines headed by an entry give the natural chain unless they say otherwise; changes in a name come on top.
UniProt P14867: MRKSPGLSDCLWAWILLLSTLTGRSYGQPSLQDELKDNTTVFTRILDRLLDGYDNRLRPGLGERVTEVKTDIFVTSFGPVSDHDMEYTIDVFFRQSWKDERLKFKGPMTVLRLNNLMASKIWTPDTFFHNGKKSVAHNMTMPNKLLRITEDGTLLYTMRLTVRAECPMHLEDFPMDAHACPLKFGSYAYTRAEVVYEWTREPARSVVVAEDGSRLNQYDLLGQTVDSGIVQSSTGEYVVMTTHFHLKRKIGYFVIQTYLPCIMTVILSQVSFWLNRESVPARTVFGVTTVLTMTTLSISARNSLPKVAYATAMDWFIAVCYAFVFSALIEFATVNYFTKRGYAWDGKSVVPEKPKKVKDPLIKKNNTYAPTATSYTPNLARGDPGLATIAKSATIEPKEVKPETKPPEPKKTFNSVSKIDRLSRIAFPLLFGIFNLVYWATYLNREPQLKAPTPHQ

The experiment addresses GABAA receptor α1β2 (GABAA receptor subunits α1 and β2) (UniProt P14867). The experiment can be described thus: co-IP; HEK293 lysates (1% Triton X-100, 50 mM Tris pH 7.5); precipitated with antibody to GABAAR β2 (β2/3) cross-linked to protein A/G-agarose, blotted for ASIC1a; cells co-transfected with HA-ASIC1a and GABAAR α1β2 (reversed co-IP) or transfected with GABAAR α1β2 only (endogenous ASIC1a).

B1: ASIC1a with HA tag (protein, UniProt P78348-2 1-528)
chain: MELKAEEEEVGGVQPVSIQAFASSSTLHGLAHIFSYERLSLKRALWALCFLGSLAVLLCVCTERVQYYFHYHHVTKLDEVAASQLTFPAVTLCNLNEFRFSQVSKNDLYHAGELLALLNNRYEIPDTQMADEKQLEILQDKANFRSFKPKPFNMREFYDRAGHDIRDMLLSCHFRGEVCSAEDFKVVFTRYGKCYTFNSGRDGRPRLKTMKGGTGNGLEIMLDIQQDEYLPVWGETDETSFEAGIKVQIHSQDEPPFIDQLGFGVAPGFQTFVACQEQRLIYLPPPWGTCKAVTMDSDLDFFDSYSITACRIDCETRYLVENCNCRMVHMPGDAPYCTPEQYKECADPALDFLVEKDQEYCVCEMPCNLTRYGKELSMVKIPSKASAKYLAKKFNKSEQYIGENILVLDIFFEVLNYETIEQKKAYEIAGLLGDIGGQMGLFIGASILTVLELFDYAYEVIKHKLCRRGKCQKEAKRSSADKGVALSLDDVKRHNPCESLRGHPAGMTYAANILPHHPARGTFEDFTC
For the molecule B1, the binding entry is on record as “binds”.

B2: endogenous ASIC1a of HEK293 cells (protein, UniProt P78348-2 1-528)
chain: MELKAEEEEVGGVQPVSIQAFASSSTLHGLAHIFSYERLSLKRALWALCFLGSLAVLLCVCTERVQYYFHYHHVTKLDEVAASQLTFPAVTLCNLNEFRFSQVSKNDLYHAGELLALLNNRYEIPDTQMADEKQLEILQDKANFRSFKPKPFNMREFYDRAGHDIRDMLLSCHFRGEVCSAEDFKVVFTRYGKCYTFNSGRDGRPRLKTMKGGTGNGLEIMLDIQQDEYLPVWGETDETSFEAGIKVQIHSQDEPPFIDQLGFGVAPGFQTFVACQEQRLIYLPPPWGTCKAVTMDSDLDFFDSYSITACRIDCETRYLVENCNCRMVHMPGDAPYCTPEQYKECADPALDFLVEKDQEYCVCEMPCNLTRYGKELSMVKIPSKASAKYLAKKFNKSEQYIGENILVLDIFFEVLNYETIEQKKAYEIAGLLGDIGGQMGLFIGASILTVLELFDYAYEVIKHKLCRRGKCQKEAKRSSADKGVALSLDDVKRHNPCESLRGHPAGMTYAANILPHHPARGTFEDFTC
Consider B2, for which the binding result was “binds”.

The values are drawn from paper PMC4055689.
